Laboratory results published in US9580390B2, “Indazole compounds as kinase inhibitors and method of treating cancer with same” (University Health Network, priority 2011, dated 2017).
Some of these results come from one statement about several compounds together. For at least one compound, name, drawing or mass did not settle the structure.

Biological target: T1, human PLK4 (Homo sapiens, UniProt O00444)
T1 construct: amino terminal GST fusion of residues 1-391 of human PLK4; made in house; host or cells: E. coli
T1 sequence (O00444 1-391): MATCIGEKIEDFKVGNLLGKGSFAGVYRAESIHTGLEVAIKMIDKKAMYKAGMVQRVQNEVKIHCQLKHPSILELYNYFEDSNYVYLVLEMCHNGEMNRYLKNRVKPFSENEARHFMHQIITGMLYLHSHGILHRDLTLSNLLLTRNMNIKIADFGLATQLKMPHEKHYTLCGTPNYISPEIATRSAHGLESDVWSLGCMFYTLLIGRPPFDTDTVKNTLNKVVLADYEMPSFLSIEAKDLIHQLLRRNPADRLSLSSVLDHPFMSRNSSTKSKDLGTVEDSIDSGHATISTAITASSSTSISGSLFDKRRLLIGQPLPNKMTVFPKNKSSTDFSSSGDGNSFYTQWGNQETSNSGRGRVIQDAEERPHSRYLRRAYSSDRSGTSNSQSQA
Assay: PLK4 inhibition assay (indirect ELISA)
Type: biochemical
Conditions: 15 μM ATP
Procedure: Active PLK4 was purified from an E. coli expression system as an amino terminal GST fusion of residues 1-391 of human PLK4. The protein was purified from clarified cell extracts after induction at 15° C. overnight using glutathione sepharose, gel permeation chromatography, and ion exchange (Resource Q). The resulting protein was dephosphorylated with lambda phosphatase (NEB cat# P0753), and resolved from the phosphatase using gluthione sepharose. The dephosphorylated GST-PLK4 was stored in aliquots at −80° C. until use.
PLK4 activity was measured using an indirect ELISA detection system. […] The colourimetric reaction was allowed to continue for 5 minutes, followed by addition of stop solution (0.5 N sulphuric acid), and quantified by detection at 450 nm with either a monochromatic or filter based plate reader (Molecular Devices M5 or Beckman DTX880, respectively).
Compound inhibition was determined at either a fixed concentration (10 μM) or at a variable inhibitor concentration (typically 50 μM to 0.1 μM in a 10 point dose response titration). Compounds were pre-incubated in the presence of enzyme for 15 minutes prior to addition of ATP and the activity remaining quantified using the above described activity assay. The % Inhibition of a compound was determined using the following formula: % Inhibition=100×(1−(experimental value−background value)/(high activity control−background value)). […]

CN1CCC(Nc2ccc(-c3n[nH]c4ccc(NC(=O)C(c5ccsc5)N5CCCC5)cc34)cc2)CC1 (stereo not shown) [Example A25]
IC50: < 50 nM
